{"source": "patent US4400199A", "about": "“Thiolcarbamate compounds and their use as herbicides” (priority 1981, dated 1983)", "key": {"barnyard grass": {"tested_on": "barnyard grass", "conditions": "known reputation; cited from earlier work"}, "[1]": {"tested_on": "barnyard grass (Echinochloa crus-galli)", "assay": "Experiment 1: herbicidal effects against barnyard grass (pot test, emulsifiable concentrate)", "conditions": "in vivo"}}, "note": "“Also recorded” adds a separate entry of the source. For at least one compound, name, drawing or mass did not settle the structure."}
{"smiles": "CCSC(=O)N1CCCCCC1", "note": "[Compound 13, S-ethyl-hexahydro-1H-azepine-1-carbothioate, reference compound]", "values": [{"measurement": "activity to combat barnyard grass (in words)", "setting": "barnyard grass", "value": "excellent activity to combat barnyard grass"}, {"measurement": "herbicidal activity (in words)", "setting": "[1]", "value": "sufficient herbicidal activity; also recorded: poor herbicidal activity"}]}
